Experimental data taken from US20230357857.
Weaker means in comparison with the reference protein, sequence or condition of that experiment. The exact form of at least one protein or probe is not confirmed.

Chains of the proteins cited; added tags and fusions are not shown.
UniProt P19821, whole entry: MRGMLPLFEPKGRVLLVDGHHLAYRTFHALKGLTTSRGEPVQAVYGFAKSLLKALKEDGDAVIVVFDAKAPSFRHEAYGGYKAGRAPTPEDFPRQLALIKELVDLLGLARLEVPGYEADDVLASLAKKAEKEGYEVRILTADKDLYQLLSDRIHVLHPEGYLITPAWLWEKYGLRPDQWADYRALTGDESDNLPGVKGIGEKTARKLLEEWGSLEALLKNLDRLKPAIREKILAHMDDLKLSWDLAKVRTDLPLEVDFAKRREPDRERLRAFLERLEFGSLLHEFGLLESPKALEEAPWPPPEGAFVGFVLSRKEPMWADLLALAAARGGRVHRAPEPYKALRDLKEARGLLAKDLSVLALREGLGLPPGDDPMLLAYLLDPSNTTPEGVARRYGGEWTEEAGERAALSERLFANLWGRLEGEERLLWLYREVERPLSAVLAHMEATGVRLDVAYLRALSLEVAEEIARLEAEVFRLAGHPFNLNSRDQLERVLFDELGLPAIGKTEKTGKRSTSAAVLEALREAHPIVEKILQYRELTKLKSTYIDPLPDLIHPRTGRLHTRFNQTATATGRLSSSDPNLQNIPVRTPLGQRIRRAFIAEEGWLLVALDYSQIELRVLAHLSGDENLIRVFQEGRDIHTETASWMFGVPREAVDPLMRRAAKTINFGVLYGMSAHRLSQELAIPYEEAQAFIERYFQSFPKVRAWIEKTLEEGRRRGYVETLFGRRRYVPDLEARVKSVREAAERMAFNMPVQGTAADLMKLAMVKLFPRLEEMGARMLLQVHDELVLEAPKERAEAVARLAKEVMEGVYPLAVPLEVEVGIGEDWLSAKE

Biological target: Taq DNA polymerase (UniProt P19821)
Assay: inhibition of the protein
Details: purified recombinant protein, protein details: Promega, dose not given here
[1] = much lower signal with single-base mismatch targets than with matched target
[2] = 18 bp duplex needed without stabilizer

## AACAGTTGCGCAGCCTCAATGTACAGTATTG / AGGCTGCGCAACTGTTGG
Enzyme released by long but not short targets
  functional effect of the aptamer: active

## AGTAGATTGAATCGCCAATGTACAGTATTGGCG / ATTCAATCTACTGACTCA [Aptamer (short target) + short target specific strand (T)]
[1]
  functional effect of the aptamer: active

## AGTAGATTGAATCGCCAATGTACAGTATTGGCG / ATTCAATCTACTGCCTCA [Aptamer (short target) + short target specific strand (G)]
[1]
  functional effect of the aptamer: active

## AGTAGATTGAATCGCCAATGTACAGTATTGGCG / ATTCAATCTACTGGCTCA [Aptamer (short target) + short target specific strand (C)]
[1]
  functional effect of the aptamer: active

## AGTAGATTGAATCGCCAATGTACAGTATTGGCG / ATTCAATCTACTGTCTCA [Aptamer (short target) + short target specific strand (A)]
[1]
  functional effect of the aptamer: active

## CAGCCTCAATGTACAGTATTG / AGGCTGCGCAACTGTTGGGAAGGGCGATCGGTGCGGGCCT [Aptamer, no stabilization domain, 6 bp duplex]
[2]
  functional effect of the aptamer: less active

## CCAACAGTTGCGCAGCCTCAATGTACAGTATTG / AGGCTGCGCAACTGTTGGGAAGGGCGATCGGTGCGGGCCT [Aptamer, no stabilization domain, 18 bp duplex]
Stable enzyme-aptamer complex
  functional effect of the aptamer: active

## GTTGCGCAGCCTACGCCAATGTACAGTATTGGCGT / AGGCTGCGCAACTGTTGG
Activated by short and long targets
  functional effect of the aptamer: active

## GTTGCGCAGCCTACTGGCCAATGTACAGTATTGGCCAGT / AGGCTGCGCAACTGTTGGGAAGGGCGATCGGTGCGGGCCT [Aptamer, 6 bp stabilization domain, 12 bp duplex]
Stable complex with only 12 bp duplex
  functional effect of the aptamer: active

## GTTGCGCAGCCTCAATGTACAGTATTG / AGGCTGCGCAACTGTTGG
unstable, cannot fully silence enzyme, listing SEQ 1 is shorter than printed Table 1 sequence
  functional effect of the aptamer: less active

## GTTGCGCAGCCTCAATGTACAGTATTG / AGGCTGCGCAACTGTTGGGAAGGGCGATCGGTGCGGGCCT [Aptamer, no stabilization domain, 12 bp duplex]
[2]
  functional effect of the aptamer: less active

## GTTGCGCAGCCTCGACCAATGTACAGTATTGGTCG / AGGCTGCGCAACTGTTGG [Medium Tm Aptamer + target-specific strand]
More stable to increased temperature than low Tm
  functional effect of the aptamer: active

## GTTGCGCAGCCTGACACGACCAATGTACAGTATTGGTCGTGTC / AGGCTGCGCAACTGTTGG [High Tm Aptamer + target-specific strand]
Fully stable even at 35 C
  functional effect of the aptamer: active

## GTTGCGCAGCCTTTATCAATGTACAGTATGATAA / AGGCTGCGCAACTGTTGG [Low Tm Aptamer + target-specific strand]
Stable at 20 C, quickly destabilized at higher temperature
  functional effect of the aptamer: active

## TGCCTATCAGTACGCCAATGTACAGTATTGGCG / TACTGATAGGCAGTCTGA [Aptamer (long target) + long target specific strand (T)]
[1]
  functional effect of the aptamer: active

## TGCCTATCAGTACGCCAATGTACAGTATTGGCG / TACTGATAGGCAGTCTGC [Aptamer (long target) + long target specific strand (G)]
[1]
  functional effect of the aptamer: active

## TGCCTATCAGTACGCCAATGTACAGTATTGGCG / TACTGATAGGCAGTCTGG [Aptamer (long target) + long target specific strand (C)]
[1]
  functional effect of the aptamer: active

## TGCCTATCAGTACGCCAATGTACAGTATTGGCG / TACTGATAGGCAGTCTGT [Aptamer (long target) + long target specific strand (A)]
[1]
  functional effect of the aptamer: active
